The assay addresses Krüppel-like factor 8 (KLF8) (human (endogenous in HepG2)) (UniProt O95600). The assay is described as follows: co-IP; KLF8 immunoprecipitated (rIgG as negative control antibody) from lysates of HepG2 cells treated with Wnt3a conditioned medium; antibody on Protein A-agarose, 4°C overnight, washed with radioimmunoprecipitation assay lysis buffer (150 mM NaCl, 0.5% NP-40); blots for β-catenin, TCF4 and KLF8.

Protein sequences, listed by entry. Tags and fused reporters are not part of them.
UniProt O95600: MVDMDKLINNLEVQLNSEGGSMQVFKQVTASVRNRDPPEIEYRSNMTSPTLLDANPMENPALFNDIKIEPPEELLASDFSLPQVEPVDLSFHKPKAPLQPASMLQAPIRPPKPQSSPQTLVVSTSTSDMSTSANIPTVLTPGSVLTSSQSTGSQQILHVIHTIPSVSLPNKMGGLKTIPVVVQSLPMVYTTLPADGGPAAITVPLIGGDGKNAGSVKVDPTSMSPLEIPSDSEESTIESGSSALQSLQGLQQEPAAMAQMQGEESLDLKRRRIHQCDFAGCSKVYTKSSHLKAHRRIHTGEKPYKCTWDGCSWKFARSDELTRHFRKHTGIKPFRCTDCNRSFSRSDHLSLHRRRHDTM
UniProt Q9NQB0: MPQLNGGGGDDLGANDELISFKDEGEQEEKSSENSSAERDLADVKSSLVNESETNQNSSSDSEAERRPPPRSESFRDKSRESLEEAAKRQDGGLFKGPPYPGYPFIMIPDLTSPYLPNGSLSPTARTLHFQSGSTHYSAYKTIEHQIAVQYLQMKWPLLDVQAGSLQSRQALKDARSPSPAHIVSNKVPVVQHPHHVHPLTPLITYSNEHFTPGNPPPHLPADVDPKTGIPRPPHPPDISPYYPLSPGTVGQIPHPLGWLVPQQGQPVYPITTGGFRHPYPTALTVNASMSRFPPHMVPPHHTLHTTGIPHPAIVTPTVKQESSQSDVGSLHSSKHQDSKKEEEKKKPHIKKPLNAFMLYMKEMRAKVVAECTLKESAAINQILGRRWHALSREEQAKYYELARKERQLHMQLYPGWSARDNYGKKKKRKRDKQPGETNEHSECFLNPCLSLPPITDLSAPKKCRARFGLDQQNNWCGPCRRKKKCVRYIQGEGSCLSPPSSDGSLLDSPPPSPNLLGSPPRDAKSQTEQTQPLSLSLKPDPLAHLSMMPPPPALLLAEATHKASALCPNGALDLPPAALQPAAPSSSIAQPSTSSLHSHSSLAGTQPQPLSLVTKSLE
UniProt P35222: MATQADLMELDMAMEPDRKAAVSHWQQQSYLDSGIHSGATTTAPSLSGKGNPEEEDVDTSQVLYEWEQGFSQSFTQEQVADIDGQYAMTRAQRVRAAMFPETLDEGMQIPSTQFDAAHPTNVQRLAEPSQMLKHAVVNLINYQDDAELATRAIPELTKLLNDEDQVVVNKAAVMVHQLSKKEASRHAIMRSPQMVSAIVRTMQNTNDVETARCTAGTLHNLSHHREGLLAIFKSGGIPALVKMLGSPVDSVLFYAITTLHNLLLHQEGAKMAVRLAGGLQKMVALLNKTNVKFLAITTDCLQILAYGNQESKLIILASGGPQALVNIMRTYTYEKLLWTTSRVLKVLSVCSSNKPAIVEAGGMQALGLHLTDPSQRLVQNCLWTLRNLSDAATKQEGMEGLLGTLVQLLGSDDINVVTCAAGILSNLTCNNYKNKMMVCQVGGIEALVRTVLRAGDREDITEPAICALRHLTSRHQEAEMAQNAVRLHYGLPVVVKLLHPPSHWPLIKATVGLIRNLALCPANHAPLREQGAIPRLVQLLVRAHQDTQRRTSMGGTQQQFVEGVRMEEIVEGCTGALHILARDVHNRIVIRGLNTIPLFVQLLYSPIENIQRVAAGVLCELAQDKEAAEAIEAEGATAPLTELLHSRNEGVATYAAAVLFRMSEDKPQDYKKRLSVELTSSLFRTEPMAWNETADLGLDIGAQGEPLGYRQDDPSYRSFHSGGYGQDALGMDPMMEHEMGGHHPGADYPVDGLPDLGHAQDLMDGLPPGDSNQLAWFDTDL

These are yes or no findings as the source states them, for the method shown. In cells and extracts the contact can be indirect. Some results given as binding are weak or reduced against the parent protein; the word gives no strength.

Consider “T-cell factor 4 (TCF4) (from UniProt Q9NQB0 1-619)”, for which the binding entry was “binds”.
In the case of β-catenin (from UniProt P35222 1-781), the binding entry is given as “binds”.

(Values after paper PMC3384617.)
